Laboratory results from US4717716A, “Immuno-regulator” (Nihon University, priority 1985, dated 1988).

Tested on: plaque-forming cells of DDY mouse immunized with sheep red blood cells (SRBC)
Test: PFC method (hemolytic plaque-forming cells) in mice immunized with SRBC
Type: in vivo

SMILES: NCCC(=O)N[C@@H](Cc1c[nH]cn1)C(=O)O [L-carnosine, β-alanyl-L-histidine]
- Weight of Spleen (25 mg/kg for 6 days, 2.5 × 10^8 SRBC, mice): 0.14 g
- Weight of Spleen (50 mg/kg for 6 days, 2.5 × 10^8 SRBC, mice): 0.18 g
- Weight of Spleen (250 mg/kg for 6 days, 2.5 × 10^8 SRBC, mice): 0.15 g
- Weight of Spleen (500 mg/kg for 6 days, 2.5 × 10^8 SRBC, mice): 0.14 g
- Weight of Spleen (SRBC antigen amount 2.5 × 10^9, 100 mg/Kg/day S.C. for six days): 0.21 g
- Weight of Spleen (SRBC antigen amount 5 × 10^7, 100 mg/Kg/day S.C. for six days): 0.14 g
- Weight of Spleen (SRBC antigen amount 5 × 10^8, 100 mg/Kg/day S.C. for six days): 0.15 g
- Weight of Spleen (mice of 2 weeks age, 100 mg/Kg/day S.C., 2.5 × 10^8 SRBC): 0.14 g
- Weight of Spleen (mice of 5 weeks age, 100 mg/Kg/day S.C., 2.5 × 10^8 SRBC): 0.15 g
- Weight of Spleen (mice of 30 weeks age, 100 mg/Kg/day S.C., 2.5 × 10^8 SRBC): 0.23 g
